The other results are listed elsewhere or left out. Small differences around the control level are noise.

The chains behind the UniProt entries cited, without tags or fusion partners. Where a name states a change or a piece, a line headed by the entry shows the natural chain unless it says otherwise.
UniProt Q8IWI9: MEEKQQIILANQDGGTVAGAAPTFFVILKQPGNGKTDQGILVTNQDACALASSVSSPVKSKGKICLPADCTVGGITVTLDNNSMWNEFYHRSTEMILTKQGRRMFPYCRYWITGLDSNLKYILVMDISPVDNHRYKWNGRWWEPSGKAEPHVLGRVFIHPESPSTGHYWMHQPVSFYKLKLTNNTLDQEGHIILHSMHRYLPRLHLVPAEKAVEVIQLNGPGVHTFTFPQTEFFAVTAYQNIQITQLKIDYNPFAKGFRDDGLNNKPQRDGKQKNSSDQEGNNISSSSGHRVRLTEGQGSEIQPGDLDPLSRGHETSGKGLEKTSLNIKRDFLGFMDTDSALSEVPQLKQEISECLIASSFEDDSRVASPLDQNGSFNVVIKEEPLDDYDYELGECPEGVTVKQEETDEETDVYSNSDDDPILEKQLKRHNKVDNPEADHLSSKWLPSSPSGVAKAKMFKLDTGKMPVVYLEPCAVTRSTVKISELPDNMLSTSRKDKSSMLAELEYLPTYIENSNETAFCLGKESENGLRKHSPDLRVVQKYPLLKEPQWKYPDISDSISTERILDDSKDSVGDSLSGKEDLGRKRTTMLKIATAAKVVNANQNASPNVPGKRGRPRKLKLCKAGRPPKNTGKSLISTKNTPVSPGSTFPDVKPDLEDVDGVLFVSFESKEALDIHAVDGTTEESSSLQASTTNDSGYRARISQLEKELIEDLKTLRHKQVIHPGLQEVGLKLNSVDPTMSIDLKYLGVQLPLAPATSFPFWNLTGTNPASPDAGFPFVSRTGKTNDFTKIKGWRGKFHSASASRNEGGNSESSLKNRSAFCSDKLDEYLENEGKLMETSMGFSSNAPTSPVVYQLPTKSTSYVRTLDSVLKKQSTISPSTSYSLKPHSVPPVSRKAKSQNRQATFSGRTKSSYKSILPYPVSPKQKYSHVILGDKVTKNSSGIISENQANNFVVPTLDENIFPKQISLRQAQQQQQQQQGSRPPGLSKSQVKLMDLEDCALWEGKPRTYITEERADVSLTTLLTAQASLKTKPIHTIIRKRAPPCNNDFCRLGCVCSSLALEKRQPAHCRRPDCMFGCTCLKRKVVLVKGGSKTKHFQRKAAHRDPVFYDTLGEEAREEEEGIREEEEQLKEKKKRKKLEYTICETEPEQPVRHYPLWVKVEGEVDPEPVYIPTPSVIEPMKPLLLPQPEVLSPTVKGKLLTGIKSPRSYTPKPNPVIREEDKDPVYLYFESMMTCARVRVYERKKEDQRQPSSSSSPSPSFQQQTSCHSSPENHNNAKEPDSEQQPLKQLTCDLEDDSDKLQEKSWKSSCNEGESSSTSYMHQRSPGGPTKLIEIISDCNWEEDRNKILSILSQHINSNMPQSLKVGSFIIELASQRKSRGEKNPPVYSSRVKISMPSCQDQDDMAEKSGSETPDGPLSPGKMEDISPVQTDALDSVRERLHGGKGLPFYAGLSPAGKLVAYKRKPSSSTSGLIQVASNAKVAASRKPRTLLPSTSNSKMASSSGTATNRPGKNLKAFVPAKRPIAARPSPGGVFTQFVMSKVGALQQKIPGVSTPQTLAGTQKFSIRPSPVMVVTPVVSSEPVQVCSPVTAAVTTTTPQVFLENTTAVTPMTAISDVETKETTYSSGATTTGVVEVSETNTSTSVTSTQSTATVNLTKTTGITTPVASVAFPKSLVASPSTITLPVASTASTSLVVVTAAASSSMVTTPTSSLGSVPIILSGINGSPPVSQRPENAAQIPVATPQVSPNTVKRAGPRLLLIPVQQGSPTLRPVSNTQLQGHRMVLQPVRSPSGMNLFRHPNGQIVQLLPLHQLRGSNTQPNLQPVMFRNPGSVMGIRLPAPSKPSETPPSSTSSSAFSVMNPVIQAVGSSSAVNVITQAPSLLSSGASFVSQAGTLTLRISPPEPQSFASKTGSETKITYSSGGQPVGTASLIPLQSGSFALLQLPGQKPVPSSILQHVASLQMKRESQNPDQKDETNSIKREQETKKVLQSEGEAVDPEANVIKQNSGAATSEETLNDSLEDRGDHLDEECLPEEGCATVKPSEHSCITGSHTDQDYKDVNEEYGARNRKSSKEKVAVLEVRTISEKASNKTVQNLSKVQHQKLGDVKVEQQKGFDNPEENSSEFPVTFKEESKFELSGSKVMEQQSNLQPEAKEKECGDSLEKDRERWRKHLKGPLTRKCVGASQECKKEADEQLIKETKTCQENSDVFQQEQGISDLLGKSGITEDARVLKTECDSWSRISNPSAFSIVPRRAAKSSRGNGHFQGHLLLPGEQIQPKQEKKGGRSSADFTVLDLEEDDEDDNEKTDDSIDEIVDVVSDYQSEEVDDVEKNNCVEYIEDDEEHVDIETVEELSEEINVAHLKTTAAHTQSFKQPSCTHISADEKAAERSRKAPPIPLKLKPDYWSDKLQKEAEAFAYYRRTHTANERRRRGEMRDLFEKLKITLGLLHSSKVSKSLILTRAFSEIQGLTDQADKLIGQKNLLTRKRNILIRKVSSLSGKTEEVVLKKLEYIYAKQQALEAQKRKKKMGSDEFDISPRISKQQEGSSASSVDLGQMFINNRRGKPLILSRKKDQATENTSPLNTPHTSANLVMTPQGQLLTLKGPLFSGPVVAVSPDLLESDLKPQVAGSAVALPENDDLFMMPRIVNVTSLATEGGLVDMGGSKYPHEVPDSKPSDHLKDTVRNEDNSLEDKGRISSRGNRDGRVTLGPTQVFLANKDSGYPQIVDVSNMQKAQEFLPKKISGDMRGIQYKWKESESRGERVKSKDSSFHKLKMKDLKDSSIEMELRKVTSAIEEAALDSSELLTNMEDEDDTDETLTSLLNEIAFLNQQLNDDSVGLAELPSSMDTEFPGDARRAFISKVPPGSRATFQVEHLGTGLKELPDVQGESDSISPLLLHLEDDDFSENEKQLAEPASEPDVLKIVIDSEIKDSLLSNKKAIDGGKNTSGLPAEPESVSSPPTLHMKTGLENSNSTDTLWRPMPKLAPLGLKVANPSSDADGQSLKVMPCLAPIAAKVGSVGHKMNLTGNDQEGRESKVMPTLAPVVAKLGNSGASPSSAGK
UniProt Q8N183: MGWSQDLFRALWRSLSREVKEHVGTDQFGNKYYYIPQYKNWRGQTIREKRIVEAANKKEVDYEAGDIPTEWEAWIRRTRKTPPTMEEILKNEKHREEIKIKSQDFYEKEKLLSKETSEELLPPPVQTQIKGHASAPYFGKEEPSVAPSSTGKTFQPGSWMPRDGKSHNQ
UniProt Q8IV48: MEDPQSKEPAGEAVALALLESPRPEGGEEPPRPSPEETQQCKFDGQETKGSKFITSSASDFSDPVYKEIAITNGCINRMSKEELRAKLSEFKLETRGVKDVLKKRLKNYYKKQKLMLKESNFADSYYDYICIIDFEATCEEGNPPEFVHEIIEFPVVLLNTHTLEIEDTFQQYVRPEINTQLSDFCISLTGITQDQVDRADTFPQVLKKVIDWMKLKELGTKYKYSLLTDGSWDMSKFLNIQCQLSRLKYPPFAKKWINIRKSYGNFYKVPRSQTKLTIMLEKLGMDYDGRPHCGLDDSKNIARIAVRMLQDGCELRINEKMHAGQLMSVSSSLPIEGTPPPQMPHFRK
UniProt Q86XF0: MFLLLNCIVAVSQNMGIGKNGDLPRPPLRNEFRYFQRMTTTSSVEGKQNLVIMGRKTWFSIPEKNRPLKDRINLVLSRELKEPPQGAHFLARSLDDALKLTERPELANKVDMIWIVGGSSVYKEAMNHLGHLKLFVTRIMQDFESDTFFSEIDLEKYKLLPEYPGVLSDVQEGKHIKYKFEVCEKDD
UniProt Q86XR8: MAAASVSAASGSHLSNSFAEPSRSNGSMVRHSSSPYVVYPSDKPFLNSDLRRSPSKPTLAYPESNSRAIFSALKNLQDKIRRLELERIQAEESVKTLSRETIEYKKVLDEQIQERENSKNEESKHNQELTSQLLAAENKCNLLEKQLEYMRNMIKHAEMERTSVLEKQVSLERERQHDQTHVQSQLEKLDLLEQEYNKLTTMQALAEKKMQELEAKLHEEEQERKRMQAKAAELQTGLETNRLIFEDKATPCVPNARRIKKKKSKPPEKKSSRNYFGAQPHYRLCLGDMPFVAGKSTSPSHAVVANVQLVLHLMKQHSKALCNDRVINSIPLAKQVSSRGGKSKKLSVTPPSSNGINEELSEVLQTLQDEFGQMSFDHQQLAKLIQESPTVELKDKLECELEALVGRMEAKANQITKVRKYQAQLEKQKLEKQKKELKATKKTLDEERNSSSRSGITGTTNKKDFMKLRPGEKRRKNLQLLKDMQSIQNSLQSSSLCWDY
UniProt Q86X76: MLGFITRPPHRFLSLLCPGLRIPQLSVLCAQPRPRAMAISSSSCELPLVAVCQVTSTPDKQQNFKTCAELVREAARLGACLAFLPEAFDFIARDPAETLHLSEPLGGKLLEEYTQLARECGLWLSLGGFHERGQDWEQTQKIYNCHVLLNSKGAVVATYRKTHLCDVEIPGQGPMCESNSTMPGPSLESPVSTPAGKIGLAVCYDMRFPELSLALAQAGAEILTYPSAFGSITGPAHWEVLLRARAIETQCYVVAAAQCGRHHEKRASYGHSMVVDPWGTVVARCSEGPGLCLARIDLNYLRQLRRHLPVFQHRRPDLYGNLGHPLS
UniProt Q8IY33: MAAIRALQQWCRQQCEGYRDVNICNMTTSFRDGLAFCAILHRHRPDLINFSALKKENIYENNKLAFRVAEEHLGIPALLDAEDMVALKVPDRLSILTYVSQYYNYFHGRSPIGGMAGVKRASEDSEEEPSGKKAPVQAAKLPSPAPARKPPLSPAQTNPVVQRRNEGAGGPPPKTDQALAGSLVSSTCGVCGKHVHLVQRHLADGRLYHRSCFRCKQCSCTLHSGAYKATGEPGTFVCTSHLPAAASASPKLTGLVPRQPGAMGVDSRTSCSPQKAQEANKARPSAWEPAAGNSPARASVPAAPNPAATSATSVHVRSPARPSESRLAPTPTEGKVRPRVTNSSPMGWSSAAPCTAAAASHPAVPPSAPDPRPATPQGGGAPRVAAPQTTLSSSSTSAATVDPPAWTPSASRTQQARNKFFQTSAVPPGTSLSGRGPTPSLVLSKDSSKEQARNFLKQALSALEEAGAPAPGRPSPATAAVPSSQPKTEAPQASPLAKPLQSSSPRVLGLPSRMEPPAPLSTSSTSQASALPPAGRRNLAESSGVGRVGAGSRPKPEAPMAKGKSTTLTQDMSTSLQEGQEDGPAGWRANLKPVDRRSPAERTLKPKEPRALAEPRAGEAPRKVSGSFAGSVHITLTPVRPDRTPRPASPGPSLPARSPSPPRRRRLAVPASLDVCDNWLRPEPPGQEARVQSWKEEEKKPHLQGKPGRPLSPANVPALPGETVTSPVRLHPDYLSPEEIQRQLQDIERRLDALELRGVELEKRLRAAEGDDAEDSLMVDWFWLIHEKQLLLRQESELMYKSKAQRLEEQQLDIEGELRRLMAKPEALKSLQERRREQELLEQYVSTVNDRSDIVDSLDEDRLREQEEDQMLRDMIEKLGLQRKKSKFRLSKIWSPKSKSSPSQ
UniProt Q8IW19: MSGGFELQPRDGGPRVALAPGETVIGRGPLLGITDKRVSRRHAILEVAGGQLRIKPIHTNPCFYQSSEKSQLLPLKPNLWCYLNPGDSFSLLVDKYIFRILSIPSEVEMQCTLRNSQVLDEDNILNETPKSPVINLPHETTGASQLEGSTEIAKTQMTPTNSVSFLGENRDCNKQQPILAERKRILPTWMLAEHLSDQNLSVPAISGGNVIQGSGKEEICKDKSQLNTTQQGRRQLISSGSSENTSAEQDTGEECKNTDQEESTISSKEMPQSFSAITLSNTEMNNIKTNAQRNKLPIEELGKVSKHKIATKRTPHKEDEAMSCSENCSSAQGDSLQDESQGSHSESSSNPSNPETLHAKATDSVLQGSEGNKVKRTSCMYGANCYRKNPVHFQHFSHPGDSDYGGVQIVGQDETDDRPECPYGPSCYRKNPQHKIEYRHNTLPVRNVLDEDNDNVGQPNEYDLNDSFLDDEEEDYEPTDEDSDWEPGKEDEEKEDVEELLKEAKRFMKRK
UniProt Q8IUF1: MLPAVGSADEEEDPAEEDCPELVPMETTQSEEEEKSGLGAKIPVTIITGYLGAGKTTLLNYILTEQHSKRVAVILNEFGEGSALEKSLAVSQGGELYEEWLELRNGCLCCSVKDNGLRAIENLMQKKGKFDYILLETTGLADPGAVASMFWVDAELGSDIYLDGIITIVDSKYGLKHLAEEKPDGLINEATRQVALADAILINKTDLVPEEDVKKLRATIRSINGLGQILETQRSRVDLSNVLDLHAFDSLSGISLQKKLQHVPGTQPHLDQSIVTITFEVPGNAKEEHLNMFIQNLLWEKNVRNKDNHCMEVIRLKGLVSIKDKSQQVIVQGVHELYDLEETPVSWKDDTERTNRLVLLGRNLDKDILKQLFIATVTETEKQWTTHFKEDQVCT

Compound in the test: Cc1nc(Nc2ncc(C(=O)Nc3c(C)cccc3Cl)s2)cc(N2CCN(CCO)CC2)n1 [dasatinib]
In words: log2 fold change of tryptic peptide abundance, ligand vs vehicle (limited proteolysis) (log2 ratio); higher = more trypsin-susceptible (destabilized). Conditions: ligand concentration: 5 uM; sample: K562 cleared lysate.
“UniProt Q8IYD8 (peptide sequence: KLEEVVIEHFK, peptide start residue: 452)”: the log2 fold change was -0.459.

“KLHL7 (peptide sequence: MCVDFLK, peptide start residue: 132) (UniProt Q8IXQ5)”: the log2 fold change is -0.122.

In the case of “MGA (peptide sequence: YPHEVPDSKPSDHLK, peptide start residue: 2671) (UniProt Q8IWI9)”, the log2 fold change is -0.646. Take “ERICH1 (peptide sequence: LFPPVPSGQGK, peptide start residue: 17) (UniProt Q86X53)”: the log2 fold change stood at 0.298. Consider “PPARGC1B (peptide sequence: HATAQPASQAGQK, peptide start residue: 670) (UniProt Q86YN6)”, for which the log2 fold change is -0.197. Turning to “SUPV3L1 (peptide sequence: EWMTQQTEHNK, peptide start residue: 754) (UniProt Q8IYB8)”, the log2 fold change is -0.511.

On to “UniProt Q8N0S2 (peptide sequence: LKEELEK, peptide start residue: 278)”, for which the log2 fold change is -0.212.

For “UniProt Q8IWG1 (peptide sequence: KVKTYQK, peptide start residue: 843)”, the log2 fold change was -0.151. In the case of “CNPY4 (peptide sequence: SREVLELGQVLDTGKR, peptide start residue: 58) (UniProt Q8N129)”, the log2 fold change stood at 0.251. Turning to “NDUFAF2 (peptide sequence: TFQPGSWMPR, peptide start residue: 153) (UniProt Q8N183)”, the log2 fold change was -0.167.

With “UniProt Q86XI8 (peptide sequence: GSQLEDQALR, peptide start residue: 579)”, the log2 fold change turned out to be 0.0896.

“GSPT2 (peptide sequence: FVKQDQVCIAR, peptide start residue: 446) (UniProt Q8IYD1)”: the log2 fold change was -0.16. Consider “ERI1 (peptide sequence: LTIMLEK, peptide start residue: 277) (UniProt Q8IV48)”, for which the log2 fold change is 0.326.

On to “RHPN2 (peptide sequence: SASTLCLPSVGAARPQVK, peptide start residue: 652) (UniProt Q8IUC4)”, for which the log2 fold change is -0.506. Regarding “UniProt Q86YS7 (peptide sequence: NQTYSFSPSK, peptide start residue: 289)”, the log2 fold change came out at 0.271. As for “ZNF444 (peptide sequence: EKPHACCECGK, peptide start residue: 247) (UniProt Q8N0Y2)”, the log2 fold change stood at 0.43. In the case of “UniProt Q86XF0 (peptide sequence: MTTTSSVEGK, peptide start residue: 38)”, the log2 fold change amounted to 0.0857. “CCDC25 (peptide sequence: MNNVNVVYTPWSNLKK, peptide start residue: 85) (UniProt Q86WR0)”: the log2 fold change was -0.548.

On to “UniProt Q86W50 (peptide sequence: VSLNFKDPEAVR, peptide start residue: 42)”, for which the log2 fold change is -0.0608. The same measure for “CEP57 (peptide sequence: NYFGAQPHYR, peptide start residue: 274) (UniProt Q86XR8)”: 0.337.

Take “PHF6 (peptide sequence: AEFGDFDIK, peptide start residue: 258) (UniProt Q8IWS0)”: the log2 fold change is -0.0815. Regarding “ZC3H18 (peptide sequence: KEQEPDFEEKR, peptide start residue: 319) (UniProt Q86VM9)”, the log2 fold change was -0.644. In the case of “NIT1 (peptide sequence: RPDLYGNLGHPLS, peptide start residue: 315) (UniProt Q86X76)”, the log2 fold change was 0.21. Turning to “MICALL2 (peptide sequence: EQEEDQMLR, peptide start residue: 865) (UniProt Q8IY33)”, the log2 fold change is -0.179.

Consider “DDX60 (peptide sequence: KYEESLK, peptide start residue: 1071) (UniProt Q8IY21)”, for which the log2 fold change was -0.0132. Under “APLF (peptide sequence: ATDSVLQGSEGNK, peptide start residue: 361) (UniProt Q8IW19)” stands 0.329.

Regarding “ITPRIP (peptide sequence: LGEDMLCLLHGR, peptide start residue: 262) (UniProt Q8IWB1)”, the log2 fold change turned out to be 0.0846. As to “PIM3 (peptide sequence: ADKESFEK, peptide start residue: 31) (UniProt Q86V86)”, the log2 fold change is -0.255. The same measure for “CBWD2 (peptide sequence: LKGLVSIKDK, peptide start residue: 316) (UniProt Q8IUF1)”: -0.49.

The values are drawn from the supplement of paper PMC12819154, “High-throughput peptide-centric local stability assay extends protein–ligand identification to membrane proteins, tissues and bacteria” (Nature Structural & Molecular Biology, 2025).
